Measured values from PubChem BioAssay AID529 (NMMLSC, 2006).
Out of some 24,000 compounds screened, about 50 (0.2%) were called active. The shares of active, inactive and inconclusive entries below differ from those in the screen.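 Rule for the calls: active = inhibition above 50%; inconclusive = compound itself fluorescent, judged against control cell fluorescence; inactive = the rest.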

Protein sequences, listed by entry. Tags and fused reporters are not part of them.
UniProt P13612, whole entry, looked up: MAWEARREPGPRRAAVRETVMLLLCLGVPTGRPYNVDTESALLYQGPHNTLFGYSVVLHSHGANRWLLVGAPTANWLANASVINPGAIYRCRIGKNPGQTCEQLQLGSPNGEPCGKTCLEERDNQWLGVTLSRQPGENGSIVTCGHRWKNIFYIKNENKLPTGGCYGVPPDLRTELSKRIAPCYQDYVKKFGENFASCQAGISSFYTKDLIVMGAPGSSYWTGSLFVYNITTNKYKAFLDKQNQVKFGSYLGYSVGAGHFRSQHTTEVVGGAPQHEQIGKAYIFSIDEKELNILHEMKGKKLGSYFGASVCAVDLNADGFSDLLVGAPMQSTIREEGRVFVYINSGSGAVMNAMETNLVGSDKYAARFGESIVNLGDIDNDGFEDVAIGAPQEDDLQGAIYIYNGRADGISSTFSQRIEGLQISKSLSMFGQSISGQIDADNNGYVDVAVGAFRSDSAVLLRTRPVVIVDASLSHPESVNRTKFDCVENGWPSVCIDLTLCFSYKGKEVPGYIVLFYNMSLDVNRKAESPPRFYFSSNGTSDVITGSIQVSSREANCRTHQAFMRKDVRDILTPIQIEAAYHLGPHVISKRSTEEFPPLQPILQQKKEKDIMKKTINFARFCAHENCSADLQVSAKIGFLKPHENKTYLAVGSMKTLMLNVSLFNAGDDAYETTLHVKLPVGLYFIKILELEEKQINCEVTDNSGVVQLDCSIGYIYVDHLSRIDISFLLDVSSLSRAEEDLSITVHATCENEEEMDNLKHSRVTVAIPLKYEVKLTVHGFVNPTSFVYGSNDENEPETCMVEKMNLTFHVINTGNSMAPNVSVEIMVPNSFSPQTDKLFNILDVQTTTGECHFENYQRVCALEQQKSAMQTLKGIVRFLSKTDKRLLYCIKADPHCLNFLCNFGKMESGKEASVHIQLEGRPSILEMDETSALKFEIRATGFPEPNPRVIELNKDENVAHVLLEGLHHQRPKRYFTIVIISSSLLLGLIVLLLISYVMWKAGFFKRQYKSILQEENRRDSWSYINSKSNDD

What follows are compounds tested against Integrin alpha-4 (Homo sapiens) (UniProt P13612) (assay: blockers of LDV-FITC ligand binding on VLA-4 – Jurkat cells, Mn2+ activated, primary screen (AID 529;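 for inhibition: 0% = Mn2+ stimulated cells lacking compound and 100% = ligand binding without Mn2+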)). Conditions: LDV-FITC binding with Mn2+, flow cytometry; stronger effect = higher value, screened at 10 µM (by protocol), 100% = Mn2+-driven binding gain fully reversed unless noted.
In the case of `CCOC(=O)c1cccc(NC(=O)c2cnc3ccccc3n2)c1`, the inhibition is reported as “inconclusive”. `CCCCS(=O)(=O)NC1=NCN(Cc2ccco2)CN1` was tested, and the inhibition was inactive: 3%. With `CN1CCc2c(sc3c2c(=O)n(-c2cccc(Cl)c2)c2nncn32)C1` the inhibition was inactive: -10.5%. For `O=C(c1cccc(F)c1)N1CCc2ccccc21`, the inhibition was “inconclusive”. `Cc1c(Cc2ccccc2)sc(N)c1C(N)=O` was tested, and the inhibition was “inconclusive”. For `CCN1CCN(c2ncc(C(=O)Nc3ccccc3C(=O)OC)c3ccccc23)CC1`, the inhibition was inactive: 4%. In the case of `O=C(NCc1ccc2c(c1)OCO2)c1cc2c(s1)CSC2`, the inhibition is reported as “inconclusive”. With `CCN(CC)C(=O)c1sc2nc(-c3cccs3)cc(-c3cccs3)c2c1N` the inhibition was “inconclusive”. `Cc1ccc(-c2noc(CSc3nc(N)cc(N)n3)n2)cc1` was tested, and the inhibition was “inconclusive”. For `O=C(c1ccco1)N1CCN(/C(=N/S(=O)(=O)c2cccs2)c2ccccc2Cl)CC1`, the inhibition was inactive: -11%. `COc1ccccc1CNC(=O)CCNC(=O)Cn1cnc2ccccc2c1=O` was tested, and the inhibition was “inconclusive”. In the case of `Cn1c(C(=O)O)c(CC(=O)Nc2ccc3c(c2)OCCO3)c2ccccc21`, the inhibition is reported as “inconclusive”. In the case of `O=C(Cn1nc(-c2ccc3c(c2)OCCO3)ccc1=O)Nc1ccc(N2CCOCC2)cc1`, the inhibition is reported as active: 96%. `CC(C)OCCCNC(=O)CN1C(=O)CC(C)(C)S(=O)(=O)c2ccccc21` was tested, and the inhibition was “inconclusive”. With `CC(C)c1ccc(NC(=O)C(c2ccc3c(c2)OCO3)N2CCC3(CC2)OCCO3)cc1` (stereo unspecified) the inhibition was active: 54%. With `CCCS(=O)(=O)NCCc1cc2ccc(C)cc2[nH]c1=O` the inhibition was “inconclusive”. For `Nn1cnn(Cc2ccccc2)c1=S`, the inhibition was “inconclusive”. `Cc1ccc(-n2ncc3c(=O)[nH]c(SCC(=O)N4CCCc5ccccc54)nc32)cc1` was tested, and the inhibition was “inconclusive”. For `Cc1cccc(Cc2c(C)nc3c(C(=O)NCc4ccco4)cnn3c2C)c1`, the inhibition was “inconclusive”. `Cc1nc2c(C(=O)NCc3ccco3)cnn2c(C)c1Cc1ccc(F)cc1Cl` was tested, and the inhibition was “inconclusive”. `COc1ccc(NC(=O)CN2C(=O)CC(C)(C)S(=O)(=O)c3ccccc32)cc1` was tested, and the inhibition was inactive: 14%. For `COC(=O)c1ccc(CSc2nc3c(cnn3-c3ccccc3)c(=O)[nH]2)o1`, the inhibition was “inconclusive”. In the case of `Cc1ccc(C(c2sc3nc(C)nn3c2O)N2CCN(c3ccccc3F)CC2)cc1` (stereo unspecified), the inhibition is reported as “inconclusive”. `Nc1nnnn1/N=C/c1ccccc1OCc1ccc(Cl)cc1Cl` was tested, and the inhibition was “inconclusive”. With `Cc1ccc(NC(=O)c2nnn(CC(=O)Nc3ccccc3)c2N)cc1C` the inhibition was “inconclusive”. In the case of `COC(=O)c1cccnc1-n1c(=O)c2cccnc2n(Cc2ccc(Cl)cc2)c1=O`, the inhibition is reported as inactive: -8.2%. With `COC(=O)c1ccccc1NC(=O)c1cc(-c2ccc(OC)c(OC)c2)on1` the inhibition was inactive: -6.3%. `COc1ccc2nc(Nc3nc(C)c(C(C)=O)s3)sc2c1` was tested, and the inhibition was active: 63%. With `COc1cccc(CNC(=O)C2CCN(Cc3cnn(-c4ccccc4)c3-n3cccc3)CC2)c1` the inhibition was “inconclusive”. `CS(=O)(=O)c1nc(-c2ccco2)cc(C(F)(F)F)n1` was tested, and the inhibition was “inconclusive”. With `O=C(O)C1CCN(S(=O)(=O)N2CCOCC2)CC1` the inhibition was inactive: 0% [stronger effect = higher value, 100% = Mn2+-driven binding gain fully reversed, screened at 10 µM (by protocol)]. In the case of `COc1cccc(Nc2cc(C)nc3ccccc23)c1`, the inhibition is reported as “inconclusive”. For `O=C(Nc1cccc2ccccc12)c1cnccn1`, the inhibition was “inconclusive”. In the case of `Cc1cc(C)c(NC(=O)CSc2nnc(Cc3cccn3C)n2-c2ccc(F)cc2)c(C)c1`, the inhibition is reported as “inconclusive”. `CC(NC(=O)Cc1ccc(F)cc1)C(c1cccs1)N1CCN(C)CC1` (stereo unspecified) was tested, and the inhibition was inactive: -11%. For `Cc1cc(C)n2nc(S(=O)(=O)NC3CCCCC3)nc2n1`, the inhibition was “inconclusive”. In the case of `CCN(CC)S(=O)(=O)c1ccc(NC2CCCc3ccccc32)nc1` (stereo unspecified), the inhibition is reported as inactive: -18.5%. For `C=C(CC)C(=O)c1ccc(OCC(=O)O)c(Cl)c1Cl`, the inhibition was inactive: -19%. For `O=C(NCCC1=CCCCC1)C1CCN(Cc2cnn(-c3ccccc3)c2-n2cccc2)CC1`, the inhibition was “inconclusive”. With `Cc1nc2sc(C(c3ccco3)N3CCOCC3)c(O)n2n1` (stereo unspecified) the inhibition was “inconclusive”. With `Cc1ccc(C)n1CCN1CCN(CC(=O)Nc2cc(C(F)(F)F)ccc2Cl)CC1` the inhibition was “inconclusive”. In the case of `CCOC(=O)c1c(C)n(C)c2c(C)cc(O)c(OC(C)=O)c12`, the inhibition is reported as “inconclusive”. With `COc1cc(CO)cc(-c2cc(CO)cc(OC)c2OC)c1OC` the inhibition was “inconclusive”. With `COc1ccc(N2CCN(C(=O)c3cc4c(-c5cccc(OC)c5)nn(C)c4s3)CC2)cc1` the inhibition was “inconclusive”. For `COc1ccc(NC(=O)C2CCN(S(=O)(=O)c3cccnc3)CC2)cc1Cl`, the inhibition was inactive: 0%. In the case of `Fc1ccc(CNc2nc(-c3ccco3)cc(C(F)(F)F)n2)cc1`, the inhibition is reported as “inconclusive”. `Cc1nc(C)c(C(=O)Nc2nc3c(C)cccc3s2)o1` was tested, and the inhibition was “inconclusive”. For `CCC(C)NC(=O)C1c2ccccc2C(=O)N1Cc1cc(OC)ccc1OC` (stereo unspecified), the inhibition was “inconclusive”. `CC(=O)NCCn1c(SCc2cc(=O)n3cc(Cl)ccc3n2)nc2ccccc2c1=O` was tested, and the inhibition was inactive: -15%. For `C1=C(c2ccccc2)CCN(c2nc3ccccc3n3cnnc23)C1`, the inhibition was “inconclusive”. With `O=C1CCNc2cc3ccccc3cc21` the inhibition was “inconclusive”. `CCOC(=O)N1CCC(NC(=O)CS(=O)(=O)Cc2nc(-c3ccc(C)cc3)oc2C)CC1` was tested, and the inhibition was “inconclusive”. With `O=C(NCC1CCCO1)c1ccc2c(=O)n(CCc3ccccc3)c(=O)[nH]c2c1` (stereo unspecified) the inhibition was “inconclusive”. In the case of `O=C(C1CC1)N1CCN=C1SCc1cccc(C(F)(F)F)c1`, the inhibition is reported as “inconclusive”. In the case of `Cc1cccc(N2CCN(C(=O)C3CCN(S(=O)(=O)c4cccc5cccnc45)CC3)CC2C)c1` (stereo unspecified), the inhibition is reported as “inconclusive”. `CCOc1ccccc1NC(=O)c1nc[nH]c1C(=O)Nc1ccccc1OCC` was tested, and the inhibition was inactive: -28%. With `CC(=O)C1C(c2ccncc2)NC(=O)NC1(O)C(F)(F)F` (stereo unspecified) the inhibition was “inconclusive”. `Cc1cc(C)c2c(n1)nn1c(C3CC3)cc(C(F)(F)F)nc21` was tested, and the inhibition was “inconclusive”. For `Cc1[nH]c2ccc(-c3nnc(SCC(=O)NCc4ccco4)n3Cc3ccccc3)cc2c1C`, the inhibition was “inconclusive”. `CC1CCN(CCCNC(=O)Cc2c(C(=O)O)n(C)c3ccccc23)CC1` was tested, and the inhibition was “inconclusive”. For `CC1Cc2nc(SCC(=O)NCC3CCCO3)n(Cc3ccccc3)c(=O)c2S1` (stereo unspecified), the inhibition was “inconclusive”. `COc1cccc2sc(Nc3nc(-c4ccccn4)cs3)nc12` was tested, and the inhibition was “inconclusive”. With `CCOC(=O)c1sc(NC(=O)CCn2nnc3ccccc32)c(C(=O)OCC)c1C` the inhibition was inactive: -4%. In the case of `Cc1ccc(NC(=O)CC2Oc3ccccc3NC2=O)c(C)c1` (stereo unspecified), the inhibition is reported as “inconclusive”. With `CCCCN(C)C(=O)c1sc2ncn(CC)c(=O)c2c1C` the inhibition was “inconclusive”. With `COc1ccc(Cn2c(=O)[nH]c3cc(C(=O)N4CCN(Cc5ccccc5)CC4)ccc3c2=O)cc1` the inhibition was “inconclusive”. `COC(=O)c1[nH]c2ccc(C)cc2c1NC(=O)CN1CCCc2ccccc21` was tested, and the inhibition was “inconclusive”. For `N#Cc1cc2ccc(N3CCOCC3)cc2cc1C#N`, the inhibition was “inconclusive”. `CCc1nn(CC(=O)NCCCN2CCCC2=O)c(=O)c2cc3sccc3n12` was tested, and the inhibition was “inconclusive”. With `Cc1cc(Nc2cccc(Cl)c2C)n2ncnc2n1` the inhibition was “inconclusive”. `CC1(C)CC2CC(C)(CN2C(=O)c2cc(-c3ccccc3O)on2)C1` (stereo unspecified) was tested, and the inhibition was “inconclusive”. `CCOC(=O)C(C)Sc1ccc2nnc(-c3ccc(F)cc3)n2n1` (stereo unspecified) was tested, and the inhibition was “inconclusive”. In the case of `CC(=O)NC1(C(F)(F)F)NC(=O)N(CC(C)C)C1=O` (stereo unspecified), the inhibition is reported as “inconclusive”. For `Brc1ccc(-c2nnc3sc(CN4CCN(c5ccccc5)CC4)cn23)cc1`, the inhibition was “inconclusive”. In the case of `CCn1c(=O)cc(OCC(=O)N2CCN(c3cccc(C(F)(F)F)c3)CC2)c2ccccc21`, the inhibition is reported as “inconclusive”. For `CCCCC(=O)Nc1cc(C)c2c(=O)oc3ccccc3c2n1`, the inhibition was “inconclusive”. For `Cc1ccc(NC(=O)c2nnn(-c3cc(C)cc(C)c3)c2N)cc1`, the inhibition was “inconclusive”. For `CC1=C(C)C(=O)C(CCCCC#CCCCC#CCO)=C(C)C1=O`, the inhibition was inactive: -12.5%. With `CCOC(=O)C1CCCN(c2c(N3CCN(c4cccc(Cl)c4)CC3)c(=O)c2=O)C1` (stereo unspecified) the inhibition was “inconclusive”. In the case of `O=C(CSc1nnc(Cn2c(=O)sc3ccccc32)n1-c1ccccc1)N1CCCCCC1`, the inhibition is reported as “inconclusive”. `CCCOc1ccc2oc(=O)c3c(c2c1)CCCN3C(=O)CN1CCc2ccccc2C1` was tested, and the inhibition was “inconclusive”. For `COc1ccc(C2C(C(=O)O)CC(=O)N2c2ccc(OC)cc2)cc1` (stereo unspecified), the inhibition was “inconclusive”. `Cc1cc(NC(=O)c2ccc(S(=O)(=O)N3CCCC3)cc2)nc2c1c(=O)oc1ccccc12` was tested, and the inhibition was “inconclusive”. For `Cc1cc(Nc2ccc(F)cc2F)n2nc(C)nc2n1`, the inhibition was “inconclusive”. With `O=C(NCc1ccc2c(c1)OCO2)C1CCCN(S(=O)(=O)c2cccc3nonc23)C1` (stereo unspecified) the inhibition was “inconclusive”. With `Cc1ccc(Cn2nnc3c(=O)[nH]c(C4CCN(S(=O)(=O)c5cc(C)ccc5C)CC4)nc32)cc1` the inhibition was “inconclusive”. For `COc1cccc(C2C(C(=O)Nc3cccnc3)=C(C)Nc3nnnn32)c1OC` (stereo unspecified), the inhibition was “inconclusive”. In the case of `CCOC(=O)c1c(C)c(C(=O)N(C)C2CCCCC2)c(C)n1C`, the inhibition is reported as inactive: 14%. `CCN(CCCNS(=O)(=O)c1ccc2c(c1)CCN2C(C)=O)c1cccc(C)c1` was tested, and the inhibition was inactive: 8%. For `CC1CCCCN1S(=O)(=O)c1ccc2c(c1)oc(=O)n2CC(=O)O` (stereo unspecified), the inhibition was “inconclusive”. `Cc1nc2ncnn2c(N2CCC(C(=O)NC3CCCC3)CC2)c1Cc1ccccc1` was tested, and the inhibition was “inconclusive”. In the case of `C=CCn1c2ccccc2c2nnc(SCC(=O)NC(C(=O)OC)C(C)C)nc21` (stereo unspecified), the inhibition is reported as inactive: -13.3%. `CCOC(=O)N1CCN(C(=O)CSCC(=O)Nc2nc(-c3ccccc3)cs2)CC1` was tested, and the inhibition was “inconclusive”. For `Cc1ccc(-c2noc(CCC(=O)Nc3cc(C)ccn3)n2)cc1`, the inhibition was “inconclusive”. For `CC(C)(C)NC(=O)Cn1nnc(-c2ccccc2Cl)n1`, the inhibition was “inconclusive”. In the case of `COc1ccc(OCc2nnc3n2N=C(c2ccc(C)cc2)CS3)cc1`, the inhibition is reported as “inconclusive”.
